# According to PMC12007717:
# Chains of the proteins cited; added tags and fusions are not shown.
# UniProt P40460: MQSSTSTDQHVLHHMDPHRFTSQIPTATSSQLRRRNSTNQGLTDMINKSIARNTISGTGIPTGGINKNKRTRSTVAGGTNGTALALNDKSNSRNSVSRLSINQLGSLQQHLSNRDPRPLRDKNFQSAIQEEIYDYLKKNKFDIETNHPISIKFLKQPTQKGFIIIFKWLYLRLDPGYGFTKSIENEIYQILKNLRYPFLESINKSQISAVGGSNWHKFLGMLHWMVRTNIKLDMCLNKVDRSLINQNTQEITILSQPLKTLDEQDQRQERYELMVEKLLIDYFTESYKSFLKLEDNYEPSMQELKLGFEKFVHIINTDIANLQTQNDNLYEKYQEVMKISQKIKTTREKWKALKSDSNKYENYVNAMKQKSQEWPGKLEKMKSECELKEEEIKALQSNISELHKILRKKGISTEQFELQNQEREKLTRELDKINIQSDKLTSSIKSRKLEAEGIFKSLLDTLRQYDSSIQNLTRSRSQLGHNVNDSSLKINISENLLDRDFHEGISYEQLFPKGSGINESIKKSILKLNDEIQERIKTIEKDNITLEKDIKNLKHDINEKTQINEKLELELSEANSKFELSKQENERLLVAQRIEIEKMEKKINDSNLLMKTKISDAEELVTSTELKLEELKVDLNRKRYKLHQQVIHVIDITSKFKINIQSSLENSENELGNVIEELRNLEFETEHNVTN
# UniProt P35201: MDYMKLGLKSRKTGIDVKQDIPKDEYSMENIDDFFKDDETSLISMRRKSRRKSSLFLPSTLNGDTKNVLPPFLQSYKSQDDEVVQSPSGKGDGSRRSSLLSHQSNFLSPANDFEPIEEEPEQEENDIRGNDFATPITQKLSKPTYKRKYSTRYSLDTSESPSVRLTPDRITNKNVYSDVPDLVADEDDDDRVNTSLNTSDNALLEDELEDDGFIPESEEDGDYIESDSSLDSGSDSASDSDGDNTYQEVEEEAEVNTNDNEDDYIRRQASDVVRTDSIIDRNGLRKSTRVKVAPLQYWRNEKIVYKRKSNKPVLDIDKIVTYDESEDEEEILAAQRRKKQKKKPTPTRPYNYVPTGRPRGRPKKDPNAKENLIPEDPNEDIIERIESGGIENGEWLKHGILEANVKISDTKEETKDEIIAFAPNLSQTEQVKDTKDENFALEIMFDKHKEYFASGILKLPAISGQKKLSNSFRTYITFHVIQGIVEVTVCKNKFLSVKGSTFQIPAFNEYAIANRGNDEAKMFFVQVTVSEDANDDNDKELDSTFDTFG
# UniProt Q07963: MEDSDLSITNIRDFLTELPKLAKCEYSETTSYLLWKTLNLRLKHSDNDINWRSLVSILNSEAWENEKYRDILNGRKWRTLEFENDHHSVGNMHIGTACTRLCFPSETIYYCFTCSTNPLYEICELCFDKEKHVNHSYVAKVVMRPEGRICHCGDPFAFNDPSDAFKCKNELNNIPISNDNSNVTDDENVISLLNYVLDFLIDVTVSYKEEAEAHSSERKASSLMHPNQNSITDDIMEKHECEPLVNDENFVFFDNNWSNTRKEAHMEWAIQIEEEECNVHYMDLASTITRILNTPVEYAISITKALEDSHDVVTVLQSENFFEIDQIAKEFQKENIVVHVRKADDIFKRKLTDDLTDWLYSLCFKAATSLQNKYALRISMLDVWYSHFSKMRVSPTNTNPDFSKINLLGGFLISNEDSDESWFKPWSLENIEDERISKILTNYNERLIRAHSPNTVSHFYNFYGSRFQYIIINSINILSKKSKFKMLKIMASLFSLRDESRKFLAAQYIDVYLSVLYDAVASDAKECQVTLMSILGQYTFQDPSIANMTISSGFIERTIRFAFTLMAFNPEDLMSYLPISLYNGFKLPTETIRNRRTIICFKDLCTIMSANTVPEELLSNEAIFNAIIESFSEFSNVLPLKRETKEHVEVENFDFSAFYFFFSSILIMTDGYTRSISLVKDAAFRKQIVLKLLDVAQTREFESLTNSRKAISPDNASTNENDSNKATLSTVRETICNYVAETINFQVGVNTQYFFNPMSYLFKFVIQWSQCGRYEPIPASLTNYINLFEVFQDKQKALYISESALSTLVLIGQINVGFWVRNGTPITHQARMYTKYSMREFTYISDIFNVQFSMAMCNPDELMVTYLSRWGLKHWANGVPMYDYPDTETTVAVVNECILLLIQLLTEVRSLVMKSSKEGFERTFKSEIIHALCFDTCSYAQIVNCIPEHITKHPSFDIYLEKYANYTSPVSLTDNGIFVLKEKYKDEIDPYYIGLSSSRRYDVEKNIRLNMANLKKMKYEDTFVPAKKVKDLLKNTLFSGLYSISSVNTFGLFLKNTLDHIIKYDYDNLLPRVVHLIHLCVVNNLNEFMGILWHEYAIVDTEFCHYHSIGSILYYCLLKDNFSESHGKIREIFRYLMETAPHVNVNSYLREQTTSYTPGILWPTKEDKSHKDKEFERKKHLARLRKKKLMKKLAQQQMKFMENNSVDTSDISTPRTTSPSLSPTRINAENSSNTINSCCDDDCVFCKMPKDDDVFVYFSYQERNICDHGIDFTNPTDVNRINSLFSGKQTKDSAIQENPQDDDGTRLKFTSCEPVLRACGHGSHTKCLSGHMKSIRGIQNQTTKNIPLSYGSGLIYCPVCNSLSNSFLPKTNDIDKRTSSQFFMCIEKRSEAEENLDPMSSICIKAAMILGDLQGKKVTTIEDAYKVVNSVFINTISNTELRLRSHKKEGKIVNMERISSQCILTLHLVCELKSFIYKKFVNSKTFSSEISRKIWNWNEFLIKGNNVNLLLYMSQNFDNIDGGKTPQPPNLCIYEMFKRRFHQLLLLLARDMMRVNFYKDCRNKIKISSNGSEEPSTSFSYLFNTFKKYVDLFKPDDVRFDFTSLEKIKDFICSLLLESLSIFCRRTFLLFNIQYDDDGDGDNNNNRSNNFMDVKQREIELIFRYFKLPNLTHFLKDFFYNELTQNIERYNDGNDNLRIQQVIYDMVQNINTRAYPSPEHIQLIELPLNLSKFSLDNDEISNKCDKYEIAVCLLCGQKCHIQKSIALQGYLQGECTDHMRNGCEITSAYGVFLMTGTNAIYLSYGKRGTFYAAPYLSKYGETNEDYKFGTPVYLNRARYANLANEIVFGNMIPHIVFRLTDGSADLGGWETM
# T1: Dad1-3FLAG (S. cerevisiae) (UniProt Q12248)
# T1 sequence: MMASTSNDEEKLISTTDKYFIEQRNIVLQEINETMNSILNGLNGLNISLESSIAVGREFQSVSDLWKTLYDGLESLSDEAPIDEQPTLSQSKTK
# T2: Dsn1-6His-3FLAG (S. cerevisiae) (UniProt P40568)
# T2 sequence: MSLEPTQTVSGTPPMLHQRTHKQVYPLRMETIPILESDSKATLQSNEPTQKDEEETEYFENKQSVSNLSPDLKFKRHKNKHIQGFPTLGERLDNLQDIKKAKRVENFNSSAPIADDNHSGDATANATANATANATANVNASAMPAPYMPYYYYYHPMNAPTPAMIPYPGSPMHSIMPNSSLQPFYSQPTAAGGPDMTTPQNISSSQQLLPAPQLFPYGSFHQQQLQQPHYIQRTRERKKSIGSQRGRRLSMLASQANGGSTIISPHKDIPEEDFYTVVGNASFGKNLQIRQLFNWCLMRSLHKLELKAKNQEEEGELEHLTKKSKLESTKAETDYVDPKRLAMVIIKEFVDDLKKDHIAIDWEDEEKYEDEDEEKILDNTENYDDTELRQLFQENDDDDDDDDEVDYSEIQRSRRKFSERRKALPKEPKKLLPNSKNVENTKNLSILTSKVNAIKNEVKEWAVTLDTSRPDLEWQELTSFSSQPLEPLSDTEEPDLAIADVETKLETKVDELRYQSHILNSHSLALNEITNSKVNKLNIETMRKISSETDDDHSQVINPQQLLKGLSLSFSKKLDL
# B1: Dam1 (protein, UniProt P53267 1-343)
# chain: MSEDKAKLGTTRSATEYRLSIGSAPTSRRSSMGESSSLMKFADQEGLTSSVGEYNENTIQQLLLPKIRELSDSIITLDSNFTRLNFIHESLADLNESLGSLLYGIMSNSWCVEFSQAPHDIQDDLIAIKQLKSLEDEKNNLVMELSNMERGIKRKKDEQGENDLAKASQNKQFNQPLFPSSQVRKYRSYDNRDKRKPSKIGNNLQVENEEDYEDDTSSEASFVLNPTNIGMSKSSQGHVTKTTRLNNNTNSKLRRKSILHTIRNSIASGADLPIENDNVVNLGDLHPNNRISLGSGAARVVNGPVTKNRNSMFSGRAERKPTESRHSVAKKTEKKINTRPPFR
# B2: Ask1 (protein, UniProt P35734 1-292)
# chain: MDSASKEETLEKLDQEITVNLQKIDSNLSFCFHKITQDIIPHVATYSEICERIMDSTEWLGTMFQETGLVNLQANAAAPVGNAPVKSLVSNNVGIFPTSAEEASRQSQTDNGPNEADSAVHVNRDVHSMFNNDSIDDFHTANITSTGQILKLPDSSDEDTGSEAVPSREQTDLTGEGHGGADDEQDESTIQRQSRKRKISLLLQQQYGSSSSMVPSPIVPNKMRKQLAHEEHINNDGDNDDENSNNIESSPLKQGHHHPKGQADDNNEGPDEEESTKEVPKPGTIIHFSTNR
# B3: Duo1 (protein, UniProt P53168 1-247)
# chain: MSEQSQLDDSTIDKLIPQIFNEMRSNLNNTTNKFPKSTGGGASDNISANSNSIRSFNSITTQSLLKESESLDKITAMIKNVTAALKNNLPVYVNQVHEVCKSTNSILDSWINIHSQAGYIHKLMSDQTYLKLINDRLHNENVNTNDEDGSTLHNVIALKKKEILDLRQKLENRKGEKDAAPAKPPNQGLNPRYGVQSGRRPVPSAGISNNGRVRKTHVPASKRPSGIPRVTNRWTKPTASSSRKMFR
# Target: T1, Dad1-3FLAG (S. cerevisiae)
# Experiment: affinity purification with mass spectrometry; one-step anti-Flag purification of Dad1-Flag from yeast lysate, Buffer H with 250 mM KCl; silver-stained PAGE and mass spectrometry; WT and pGAL-MPS1 backgrounds
row,Molecule,binding
1,B1,binds
2,B2,binds

# Target: T2, Dsn1-6His-3FLAG (S. cerevisiae)
# Experiment: affinity purification with mass spectrometry; one-step anti-Flag purification of Dsn1-His-Flag or Ndc80-Flag from yeast lysate, Buffer H with 150 mM KCl; Rapigest elution, trypsin, Orbitrap Fusion; WT, pGAL-MPS1, mps1-1 and ndc80 phosphomutant backgrounds
row,Molecule,binding
1,Ndc80 (wild type) (from UniProt P40460 1-691),binds
2,Mif2 (from UniProt P35201 1-549),binds
3,Ubr2 (from UniProt Q07963 1-1872),binds
4,B3,binds
5,B1,binds

# No constants are given. Whether binding was seen depends on the method and setting. Binding seen in cells or lysates may run through a third protein. Here binding means that the protein was enriched with, or labelled near, the bait; the list need not be complete. Where a sequence is shown, tags or fusion partners need not be part of it.
